Assay results reported in US20220411799.
For part of these data: No signal at the amounts used counts as a negative. For part of these data: A weaker result is weaker than the reference pair of the same experiment. For part of these data: For at least one entry, the source does not settle the construct or the ends of the probe. For part of these data: Results from cells or extracts need not show a direct contact.

Assays:
[1] = target: DNMT1 (endogenous) (Homo sapiens) (UniProt P26358); test: pull-down; conditions: 2'-F pyrimidines, 200 nM biotinylated aptamer, K562 extract, protein in an extract, protein details: K562 cell extract, label: 3'-biotin (ELONA, pulldown)
[2] = target: DNMT1 (endogenous) (Homo sapiens) (UniProt P26358); test: activity in cells; conditions: 2'-F pyrimidines, nuclear extracts of transfected K562 cells, protein in an extract, protein details: K562 cell extract, dose not given here
[3] = target: DNMT3A (UniProt Q9Y6K1); test: inhibition of the protein; conditions: 2'-F pyrimidines, no effect on enzymatic activity, purified recombinant protein, label: 3'-biotin (ELONA, pulldown), dose not given here
[4] = target: DNMT3B (UniProt Q9UBC3); test: inhibition of the protein; conditions: 2'-F pyrimidines, no effect on enzymatic activity, purified recombinant protein, label: 3'-biotin (ELONA, pulldown), dose not given here
[5] = target: DNMT1 (Homo sapiens) (UniProt P26358); test: EMSA; conditions: 2'-F pyrimidines; two alternative secondary structures of R5F; purified recombinant protein; label: 3'-biotin (ELONA, pulldown)
[6] = variant of Ce-10 (long, 61-mer)

Sequence	binding result [1]	functional effect of the aptamer [2]	functional effect of the aptamer [3]	functional effect of the aptamer [4]	binding result [5]	binding result [1, 6]	functional effect of the aptamer [2, 6]	functional effect of the aptamer [3, 6]	functional effect of the aptamer [4, 6]
CUGAGGCCUAACGAAGGCUUCU [Ce-49 sh]	binds	active	not active	not active	–	–	–	–	–
CUGAGGCCUUGGCGAGGCUUCU [R5-F (DNMT1 bait)]	binds	–	not active	not active	binds more weakly	–	–	–	–
UUACUGGGCUGAGGUAAUGGCGAGG [Ce-10-2 sh]	–	–	–	–	–	binds	active	not active	not active
